# From PubChem BioAssay AID504834 (National Center for Advancing Translational Sciences (NCATS), 2011)
# Screen size: about 320,000 compounds; about 22,000 (6.9%) were called active. Inconclusive results, whose numbers are uncertain, are shown with a selection of clear calls. The call rests on the fitted dose curve; in most records, active means well fitted inhibition curve with a large enough effect; inconclusive means small, poorly fitted or top-dose-only effect, or another doubt; inactive means no such curve, though single readings can be large or run the other way. Where the call is inconclusive, the potency comes from a doubtful curve fit.
# Assay: Primary qHTS for delayed death inhibitors of the malarial parasite plastid, 96 hour incubation
# Conditions: P. falciparum luciferase reporter growth; series mostly up to 28.7 µM; activity change, negative = inhibition: at the top concentration
# Method in brief: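 Erythrocytes infected with luciferase-expressing P. falciparum were dispensed at 2% hematocrit and 0.05% parasitemia (final), then incubated with compounds 96 hours at 37 C in 5% CO2. Luminescence after detection reagent addition reported growth.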
# On the % scale 0 is the no-effect control and ±100 the full control effect; potency means the concentration at half of the fitted maximal effect.
Structure (SMILES),Potency,"activity change, negative = inhibition"
Cc1ccc(-c2ccc(CCC(=O)O)n2C(C)C)cc1,"inconclusive: 14.7 µM [inhibitor, single point]",–
CCOC(=O)CCc1c(C)nc(SCCN2CCCC2)c(C#N)c1C,active: 5.22 µM,–
Cc1ccc(C(=O)N/C(=C/c2ccccc2)C(=O)NCC2CCCO2)cc1 (centres undefined),"inconclusive: 1.47 µM [inhibitor, full curve, poor fit]",–
Cc1ccc(-c2cc(C(F)F)nc(N3CCC(C)CC3)n2)cc1,–,inactive: 63.5%
O=C(c1ccccc1Cl)N(Cc1ccc(Br)cc1)N1C(=O)CCC1=O,–,inactive: 37.9% [at 5.75 µM]
CCCCn1c(N)c(N(CCOC)C(=O)CCCc2nc3ccccc3s2)c(=O)[nH]c1=O,–,inactive: -13.4%
Cc1ccc(OCc2nnc(SCC(=O)Nc3nccs3)n2-c2ccccc2)cc1C,"inconclusive: 13.1 µM [inhibitor, partial curve, poor fit]",–
N#C/C(=C\c1ccc(-c2ccccc2C(=O)O)o1)c1nc2ccccc2[nH]1,"inconclusive: 4.15 µM [inhibitor, partial curve, poor fit]",–
COc1ccc(/C=C/c2nc3ccccc3n2C)cc1,–,inactive: 20.4%
COc1ccc(OC)c(Nc2ccc(Nc3cc(OC)ccc3OC)nn2)c1,active: 9.28 µM,–
Cc1ccc(-n2c(SCC(=O)N3CCCC3)nc3c(c2=O)SCC3)cc1,"inconclusive: 4.65 µM [inhibitor, partial curve, poor fit]",–
S=C(NCc1ccccn1)Nc1ccc(Cl)cc1Cl,–,inactive: 0%
CCOc1ccccc1C1C(C#N)=C(N)Oc2cc(C)n(Cc3ccccn3)c(=O)c21 (centres undefined),–,inactive: -3.3%
CC1(C(=O)N/N=C/c2ccccc2)CC1(Br)Br (centres undefined),"inconclusive: 0.165 µM [inhibitor, full curve, poor fit]",–
CCC(=O)Nc1ccc2c(c1)ncn2-c1ccc(C)cc1,"inconclusive: 11.7 µM [inhibitor, single point]",–
COc1ccc(C(=O)N2CCc3cc(OC)c(OC)cc3C2c2cccc([N+](=O)[O-])c2)cc1OC (centres undefined),"inconclusive: 0.0117 µM [inhibitor, full curve, poor fit]",–
COc1ccccc1N1CCN(C(=O)c2cc3c(=O)n4ccccc4nc3s2)CC1,"inconclusive: 10.4 µM [inhibitor, single point]",–
COC(=O)c1ccc(NCCc2csc(-c3ccc(C)cc3)n2)c([N+](=O)[O-])c1,–,inactive: 31.2%
O=C(Nc1ccc(N2CCOCC2)cc1)C1CC1,"inconclusive: 4.15 µM [inhibitor, partial curve, poor fit]",–
COc1ccc(NC(C)=O)cc1NC(C)C(=O)Nc1ccc(F)c(F)c1F (centres undefined),–,inactive: 38.8%
O=C(c1cc(-c2ccc(Cl)s2)nc2ccccc12)N1CCOCC1,"inconclusive: 11.7 µM [inhibitor, single point]",–
CCOC(=O)Cc1nnc(NC(=O)CSc2ncc(-c3ccccc3)nn2)s1,"inconclusive: 5.22 µM [inhibitor, partial curve, poor fit]",–
CC(=O)c1cccc(NC(=O)CCS(=O)(=O)c2cc3c(cc2C)NC(=O)CO3)c1,"inconclusive: 10.4 µM [inhibitor, single point]",–

# Some values from the list:
# activity change, negative = inhibition, `Cc1ccc(-c2cc(C(F)F)nc(N3CCC(C)CC3)n2)cc1` is entered as inactive: 63.5%
# Potency, `Cc1ccc(C(=O)N/C(=C/c2ccccc2)C(=O)NCC2CCCO2)cc1` (centres undefined) is entered as inconclusive: 1.47 µM [inhibitor, full curve, poor fit]
# Potency, `Cc1ccc(-n2c(SCC(=O)N3CCCC3)nc3c(c2=O)SCC3)cc1` is entered as inconclusive: 4.65 µM [inhibitor, partial curve, poor fit]

# More records.

Structure (SMILES),Potency,"activity change, negative = inhibition"
CCN1CCN(C(=O)C(=O)c2cn(CC(=O)N3CCCCCC3)c3ccccc23)CC1,"inconclusive: 10.4 µM [inhibitor, single point]",–
CCCc1cc(C(=O)Nc2ccc(OC)cc2[N+](=O)[O-])cs1,"inconclusive: 14.7 µM [inhibitor, partial curve, poor fit]",–
Cc1ccc(CNC(=O)C2c3ccccc3C(=O)N(C)C2c2c[nH]c3ccccc23)o1 (centres undefined),–,inactive: 16.7%
Clc1ccc(OCCN2CCOCC2)cc1Cl,–,inactive: 26.5%
CCC(CC)NC(=O)CN1CCN(S(=O)(=O)c2ccc(Br)s2)CC1,–,inactive: 35%
O=C(NCc1ccccc1Cl)C1(S(=O)(=O)c2ccc(Cl)cc2)CC1,"inconclusive: 0.586 µM [inhibitor, full curve, poor fit]",–
CCN(CC(=O)NC(C)(C)C)C(=O)COc1c(Cl)cc(Cl)c2ccc(C)nc12,"inconclusive: 18.5 µM [inhibitor, single point]",–
CC1CCCN(CCOCCOc2ccc(Cl)cc2Br)C1 (centres undefined),active: 11.7 µM,–
CCOC(=O)Cc1csc(N/C(=N/S(=O)(=O)c2ccc(F)cc2F)c2ccccc2)n1,"inconclusive: 11.7 µM [inhibitor, partial curve, poor fit]",–
O=C(O)c1ccc(Cl)c(S(=O)(=O)Nc2ccc3cn[nH]c3c2)c1,–,inactive: -9.76%
CC1CCN(C(=O)c2ccc(NS(=O)(=O)c3cccc4cccnc34)cc2)CC1,"inconclusive: 0.415 µM [inhibitor, single point]",–
CCCOc1cccc(C(=O)Nc2ccc3c(c2)OCCO3)c1,"inconclusive: 13.1 µM [inhibitor, single point]",–
CN1CCN(C(=O)C2CCN(S(=O)(=O)c3ccc4c(c3)oc(=O)n4C)CC2)CC1,–,inactive: -59.8%
COc1ccc(C(CNC(=O)CN2C(=O)NC3(CC(C)CC(C)(C)C3)C2=O)N2CCOCC2)cc1 (centres undefined),"inconclusive: 0.0828 µM [inhibitor, full curve, poor fit]",–
CCOCCCNC(=O)C1CCN(S(=O)(=O)N2CC(C)CC(C)C2)CC1 (centres undefined),"inconclusive: 16.5 µM [inhibitor, partial curve, poor fit]",–
COC(/C(=N/O)c1ccc(Cl)cc1)c1ccccc1 (centres undefined),active: 2.33 µM,–
CSc1ccccc1NC(=S)NC1CCCCC1,"inconclusive: 18.5 µM [inhibitor, single point]",–
COc1ccc(N2C(=O)C3C(C2=O)C(C(=O)c2ccc(Cl)cc2)N2CCCC32)cc1 (centres undefined),"inconclusive: 18.5 µM [inhibitor, single point]",–
Cc1nn(C)c(C)c1CNC(=O)c1cc2n(n1)C(C(F)(F)F)CC(c1cccs1)N2 (centres undefined),active: 7.38 µM,–
CC(CC(=O)N(C)c1c(N)n(Cc2ccccc2)c(=O)[nH]c1=O)c1ccccc1 (centres undefined),–,inactive: -9.55%
COc1ccc(C2CC(=O)c3cnc(NC(=O)c4cc(OC)cc(OC)c4)nc3C2)cc1 (centres undefined),–,inactive: -26.4%
O=C1c2ccccc2C2(c3ccc(Cl)cc3)NCCN12 (centres undefined),active: 13.1 µM,–
CCOC(=O)c1c(C)[nH]c(C(=O)N2CCN(C(=O)OCC)CC2)c1C,–,inactive: 19.4%

Structure (SMILES),Potency,"activity change, negative = inhibition"
COc1ccc(-c2noc(CN(C)C(=O)Nc3ccccc3)n2)cc1,"inconclusive: 13.1 µM [inhibitor, partial curve, poor fit]",–
COc1ccc2c(C(=O)CN3CCN(c4ccccc4)CC3)c[nH]c2c1,–,inactive: 2.58%
COc1cc(/C=C2/NC(=O)NC2=O)cc(Br)c1OCc1ccc(C(=O)O)cc1,"inconclusive: 14.7 µM [inhibitor, partial curve, poor fit]",–
COc1ccc(S(=O)(=O)NCc2cccnc2)cc1NC(=O)c1ccc(Cl)cc1,"inconclusive: 5.22 µM [inhibitor, partial curve]",–
CC(=O)Nc1ccc(S(=O)(=O)N2CCC(C(=O)NCCC(=O)NCc3ccccc3)CC2)cc1,"inconclusive: 11.7 µM [inhibitor, single point]",–
Cn1c(CNC(=O)c2ccco2)nnc1SCC(=O)c1ccc(Br)cc1,–,inactive: -7.95%
COc1ccc(CNC(=O)CSCc2cnn(-c3ccccc3)c2-n2cccc2)cc1,"inconclusive: 14.7 µM [inhibitor, partial curve, poor fit]",–
Cn1nnnc1P(=O)(c1ccccc1)c1ccccc1,active: 10.4 µM,–
COc1ccc(-n2c(=O)/c(=C\c3cccs3)s/c2=C(/C#N)C(=O)N2CCN(C)CC2)cc1,–,inactive: 20.1%
Nc1cccc(-c2nc3cc(S(=O)(=O)c4ccc5oc(-c6cccc(N)c6)nc5c4)ccc3o2)c1,–,inactive: -18.6%
COc1ccc(S(=O)(=O)N(CC(=O)N2CCN(c3ccccc3)CC2)c2ccccc2)cc1,"inconclusive: 10.4 µM [inhibitor, single point]",–
CSc1cccc(CN(C)C(=O)C2CCC(=O)N(CCCN3CCCC3=O)C2)c1 (centres undefined),"inconclusive: 18.5 µM [inhibitor, single point]",–
O=C(NC(=S)Nc1cccc(NC(=O)c2ccccc2Cl)c1)c1cccs1,"inconclusive: 18.5 µM [inhibitor, single point]",–
Cc1ccc(C(=O)N2CCN(S(=O)(=O)c3ccccc3[N+](=O)[O-])C2)cc1,"inconclusive: 18.5 µM [inhibitor, single point]",–
COc1cc(OC)cc(C(=O)Nc2cccc(NC(=O)c3ccccc3)c2)c1,"inconclusive: 7.38 µM [inhibitor, partial curve]",–
Cc1ccc(Nc2nnc(SCC(=O)NCc3ccco3)s2)cc1,"inconclusive: 10.4 µM [inhibitor, partial curve, poor fit]",–
Cc1cc(NC(=O)Cn2c(C)nc3ccccc3c2=O)ccc1Br,–,inactive: 4.09%
Cc1cccc(OCC(=O)N/N=C\c2cc3c(cc2[N+](=O)[O-])OCO3)c1C,"inconclusive: 11.7 µM [inhibitor, single point]",–
CN(c1ccccc1)S(=O)(=O)c1cccc(C(=O)Nc2nn[nH]n2)c1,–,inactive: 26.7%
COc1ccc2cc(C(=O)/C=C/c3cc(OC)c(O)c(OC)c3)ccc2c1,"inconclusive: 18.5 µM [inhibitor, single point]",–
COc1ccc(-c2[nH]n(-c3ccc([N+](=O)[O-])cc3)c(=O)c2C=NCc2ccc(F)cc2)cc1,"inconclusive: 13.1 µM [inhibitor, single point]",–
Cc1ccc2cc(CN(C(=O)c3cccnc3)C(C)C)c(=O)[nH]c2c1,"inconclusive: 18.5 µM [inhibitor, single point]",–
COc1ccc(Br)cc1CN(C)C(C)C(=O)Nc1cc([N+](=O)[O-])ccc1OC (centres undefined),"inconclusive: 13.1 µM [inhibitor, single point]",–
